In patent US20040102454A1, “Phenylahistin and the phenylahistin analogs, a new class of anti-tumor compounds” (priority 1998, published 2004):

System: P388 cells
Assay: P388 proliferation, Alamar Blue assay
Format: cell-based, murine
Settings: Mus musculus, P388, read-out: IC50 P388 proliferation
Experimental: The biological activity of phenylahistin and its derivatives, synthesized as described in EXAMPLE 7 and established according to the methods described in EXAMPLES 5 and 11, are summarized in Table 4. […]
For this example, the Alamar Blue™ assay was performed as follows. Exponentially growing P388 cells were seeded into 96-well tissue culture plates (5×10^3 cells/100 μl/well) and cultured in RPMI 1640 medium supplemented with 10% fetal bovine serum for 16 h. Compounds (DMSO solution) were then added to each well at various concentrations, and the cells were cultured for an additional 48 h. Living cells were counted using Alamar Blue™ (BioSource International, Camarillo, Calif.), according to the method of Ahmed, S. A. et al., J. Immunol. Methods, 170, 211 (1994).

For COc1cc2c(c(OC)c1OC)-c1ccc(OC)c(=O)cc1[C@@H](NC(C)=O)CC2 [colchicine], which IC50 is on record?
The IC50 was 31 nM.
